Some of the results follow.
Key:
Assay in all cases: log2 fold change, soluble protein after heating vs DMSO (PISA); higher = thermal stabilisation; K562 lysate, 10 uM; active = over 0.2 and 3.5 SD of the protein, either way, in both replicates (recomputed)
[1] = compound: CCCS(=O)(=O)Nc1ccc(F)c(C(=O)c2c[nH]c3ncc(-c4ccc(Cl)cc4)cc23)c1F [vemurafenib]
Summary of the method: (§1)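 To prepare the extract, K562 pellets were dounce-homogenised in PBS pH 7.4 with 1 mM MgCl2, giving crude material at 1 mg/mL protein. This was treated with 10 μM compound for 30 min, then heated in aliquots for 3 min over 48°C-58°C before pooling and addition of NP-40 to 0.5% at 4°C. Centrifugation at 21,000xg for 90 min left soluble protein in the supernatant, which TMTpro 16plex LC-MS/MS quantified with equalised channel sums. Results are log-two fold changes in thermal stability compared with solvent controls, from duplicates.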

By UniProt entry, the sequences of proteins in these tests, tags left out. Where a name states a change or a piece, a line headed by the entry shows the natural chain unless it says otherwise.
UniProt Q8IYK4: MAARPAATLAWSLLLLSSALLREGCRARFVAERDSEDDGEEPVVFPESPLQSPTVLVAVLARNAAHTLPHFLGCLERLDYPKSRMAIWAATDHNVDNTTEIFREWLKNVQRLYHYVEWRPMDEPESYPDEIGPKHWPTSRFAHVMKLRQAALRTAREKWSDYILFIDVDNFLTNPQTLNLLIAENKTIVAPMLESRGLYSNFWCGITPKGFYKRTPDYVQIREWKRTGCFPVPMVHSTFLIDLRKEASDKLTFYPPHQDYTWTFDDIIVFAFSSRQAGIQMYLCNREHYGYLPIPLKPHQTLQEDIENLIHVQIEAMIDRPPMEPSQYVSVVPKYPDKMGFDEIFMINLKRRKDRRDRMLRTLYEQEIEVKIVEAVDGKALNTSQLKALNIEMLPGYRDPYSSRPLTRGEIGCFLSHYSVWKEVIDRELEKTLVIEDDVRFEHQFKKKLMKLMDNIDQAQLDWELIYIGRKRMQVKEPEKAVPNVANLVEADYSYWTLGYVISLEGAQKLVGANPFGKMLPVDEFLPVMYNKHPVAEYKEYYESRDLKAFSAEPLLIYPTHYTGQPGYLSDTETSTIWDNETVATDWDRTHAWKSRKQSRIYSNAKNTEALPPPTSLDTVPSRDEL
UniProt Q9H9Q2: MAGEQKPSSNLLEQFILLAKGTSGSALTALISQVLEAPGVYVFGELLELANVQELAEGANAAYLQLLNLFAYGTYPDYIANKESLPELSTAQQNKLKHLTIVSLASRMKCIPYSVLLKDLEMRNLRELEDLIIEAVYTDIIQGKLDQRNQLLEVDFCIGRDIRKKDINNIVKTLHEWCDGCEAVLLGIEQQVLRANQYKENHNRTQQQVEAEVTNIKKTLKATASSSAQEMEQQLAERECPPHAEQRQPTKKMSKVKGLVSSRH
UniProt P09669, whole entry, looked up: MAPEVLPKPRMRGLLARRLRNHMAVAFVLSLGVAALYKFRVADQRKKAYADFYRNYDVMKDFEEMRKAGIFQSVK
UniProt Q14746: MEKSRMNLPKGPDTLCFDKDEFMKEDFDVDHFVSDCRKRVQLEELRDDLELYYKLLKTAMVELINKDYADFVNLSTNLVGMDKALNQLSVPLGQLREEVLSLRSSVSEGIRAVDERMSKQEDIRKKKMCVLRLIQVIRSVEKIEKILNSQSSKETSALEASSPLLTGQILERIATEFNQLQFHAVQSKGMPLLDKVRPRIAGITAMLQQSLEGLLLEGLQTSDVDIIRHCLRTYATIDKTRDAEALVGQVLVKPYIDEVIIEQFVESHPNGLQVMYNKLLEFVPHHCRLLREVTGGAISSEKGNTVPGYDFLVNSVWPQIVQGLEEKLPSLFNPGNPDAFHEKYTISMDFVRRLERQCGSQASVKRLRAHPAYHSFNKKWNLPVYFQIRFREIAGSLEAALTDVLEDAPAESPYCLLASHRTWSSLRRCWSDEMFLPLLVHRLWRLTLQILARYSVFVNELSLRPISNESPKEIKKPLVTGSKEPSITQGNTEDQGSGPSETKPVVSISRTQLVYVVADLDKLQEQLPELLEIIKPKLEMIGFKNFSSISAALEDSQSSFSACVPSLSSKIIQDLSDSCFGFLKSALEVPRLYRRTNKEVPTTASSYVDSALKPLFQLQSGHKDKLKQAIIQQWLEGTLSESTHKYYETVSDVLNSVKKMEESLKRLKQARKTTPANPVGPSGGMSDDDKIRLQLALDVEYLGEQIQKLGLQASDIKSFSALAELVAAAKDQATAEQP
UniProt P09543: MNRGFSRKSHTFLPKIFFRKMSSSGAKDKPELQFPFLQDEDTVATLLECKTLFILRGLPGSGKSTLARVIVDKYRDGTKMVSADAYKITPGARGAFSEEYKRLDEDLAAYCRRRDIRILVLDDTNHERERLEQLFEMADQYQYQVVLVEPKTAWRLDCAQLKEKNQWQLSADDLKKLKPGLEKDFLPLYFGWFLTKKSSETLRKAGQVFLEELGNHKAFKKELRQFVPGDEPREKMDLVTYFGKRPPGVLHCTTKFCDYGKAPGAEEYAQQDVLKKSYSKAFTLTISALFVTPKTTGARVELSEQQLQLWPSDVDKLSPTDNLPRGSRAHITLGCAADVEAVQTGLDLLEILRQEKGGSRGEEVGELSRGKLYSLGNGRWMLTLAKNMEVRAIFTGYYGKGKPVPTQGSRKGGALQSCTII
UniProt Q96JB2: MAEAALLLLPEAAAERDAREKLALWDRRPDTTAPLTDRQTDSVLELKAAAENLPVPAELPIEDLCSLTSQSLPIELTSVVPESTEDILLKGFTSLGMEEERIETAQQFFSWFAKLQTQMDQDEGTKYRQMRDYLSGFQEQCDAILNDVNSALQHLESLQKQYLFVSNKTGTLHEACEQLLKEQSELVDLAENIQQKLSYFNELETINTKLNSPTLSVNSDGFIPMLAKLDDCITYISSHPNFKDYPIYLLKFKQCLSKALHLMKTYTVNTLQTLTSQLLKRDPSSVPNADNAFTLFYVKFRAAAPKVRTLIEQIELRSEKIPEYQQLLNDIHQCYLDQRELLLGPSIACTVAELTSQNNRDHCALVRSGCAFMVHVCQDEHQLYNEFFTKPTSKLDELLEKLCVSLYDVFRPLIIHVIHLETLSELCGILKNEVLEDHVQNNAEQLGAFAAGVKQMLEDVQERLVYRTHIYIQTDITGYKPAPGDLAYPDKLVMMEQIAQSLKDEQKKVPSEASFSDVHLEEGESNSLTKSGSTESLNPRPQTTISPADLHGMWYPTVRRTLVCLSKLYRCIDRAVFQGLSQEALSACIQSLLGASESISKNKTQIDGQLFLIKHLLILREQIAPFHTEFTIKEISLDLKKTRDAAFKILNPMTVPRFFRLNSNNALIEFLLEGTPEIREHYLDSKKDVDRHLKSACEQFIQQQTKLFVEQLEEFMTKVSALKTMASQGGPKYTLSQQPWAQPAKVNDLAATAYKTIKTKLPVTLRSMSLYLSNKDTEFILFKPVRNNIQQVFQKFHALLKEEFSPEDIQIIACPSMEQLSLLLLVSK
UniProt Q96BR5: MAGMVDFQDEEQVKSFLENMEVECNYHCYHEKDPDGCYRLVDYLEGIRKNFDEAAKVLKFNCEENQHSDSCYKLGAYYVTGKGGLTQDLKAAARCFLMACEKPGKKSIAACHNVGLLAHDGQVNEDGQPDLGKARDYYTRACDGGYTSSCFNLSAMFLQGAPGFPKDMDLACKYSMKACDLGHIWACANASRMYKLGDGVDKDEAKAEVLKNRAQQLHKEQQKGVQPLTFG
UniProt Q9BRF8, whole entry, looked up: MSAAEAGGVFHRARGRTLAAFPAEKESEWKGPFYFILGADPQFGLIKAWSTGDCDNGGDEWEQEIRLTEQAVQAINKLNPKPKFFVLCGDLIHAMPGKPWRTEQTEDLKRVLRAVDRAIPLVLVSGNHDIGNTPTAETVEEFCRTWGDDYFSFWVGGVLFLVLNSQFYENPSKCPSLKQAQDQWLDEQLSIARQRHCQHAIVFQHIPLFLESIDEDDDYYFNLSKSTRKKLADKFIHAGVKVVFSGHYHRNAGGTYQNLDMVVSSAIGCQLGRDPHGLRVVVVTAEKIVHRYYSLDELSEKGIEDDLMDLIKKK
UniProt Q5RI15: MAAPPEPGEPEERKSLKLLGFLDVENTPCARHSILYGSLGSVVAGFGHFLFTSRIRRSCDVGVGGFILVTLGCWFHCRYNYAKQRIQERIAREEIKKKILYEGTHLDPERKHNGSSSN
UniProt Q8N684: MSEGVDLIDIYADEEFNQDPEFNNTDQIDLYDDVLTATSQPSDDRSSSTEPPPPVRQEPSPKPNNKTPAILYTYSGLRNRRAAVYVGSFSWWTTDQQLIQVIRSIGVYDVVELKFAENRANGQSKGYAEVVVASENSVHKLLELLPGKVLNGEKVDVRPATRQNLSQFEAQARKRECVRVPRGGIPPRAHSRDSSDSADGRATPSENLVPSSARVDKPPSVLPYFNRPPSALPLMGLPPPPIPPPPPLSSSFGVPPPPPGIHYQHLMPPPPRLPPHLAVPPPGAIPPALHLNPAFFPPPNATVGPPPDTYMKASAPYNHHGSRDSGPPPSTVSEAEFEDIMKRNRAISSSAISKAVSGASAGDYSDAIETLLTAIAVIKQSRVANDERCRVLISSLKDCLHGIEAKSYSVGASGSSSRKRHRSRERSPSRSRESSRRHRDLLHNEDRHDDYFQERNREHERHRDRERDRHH
UniProt Q9P2I0: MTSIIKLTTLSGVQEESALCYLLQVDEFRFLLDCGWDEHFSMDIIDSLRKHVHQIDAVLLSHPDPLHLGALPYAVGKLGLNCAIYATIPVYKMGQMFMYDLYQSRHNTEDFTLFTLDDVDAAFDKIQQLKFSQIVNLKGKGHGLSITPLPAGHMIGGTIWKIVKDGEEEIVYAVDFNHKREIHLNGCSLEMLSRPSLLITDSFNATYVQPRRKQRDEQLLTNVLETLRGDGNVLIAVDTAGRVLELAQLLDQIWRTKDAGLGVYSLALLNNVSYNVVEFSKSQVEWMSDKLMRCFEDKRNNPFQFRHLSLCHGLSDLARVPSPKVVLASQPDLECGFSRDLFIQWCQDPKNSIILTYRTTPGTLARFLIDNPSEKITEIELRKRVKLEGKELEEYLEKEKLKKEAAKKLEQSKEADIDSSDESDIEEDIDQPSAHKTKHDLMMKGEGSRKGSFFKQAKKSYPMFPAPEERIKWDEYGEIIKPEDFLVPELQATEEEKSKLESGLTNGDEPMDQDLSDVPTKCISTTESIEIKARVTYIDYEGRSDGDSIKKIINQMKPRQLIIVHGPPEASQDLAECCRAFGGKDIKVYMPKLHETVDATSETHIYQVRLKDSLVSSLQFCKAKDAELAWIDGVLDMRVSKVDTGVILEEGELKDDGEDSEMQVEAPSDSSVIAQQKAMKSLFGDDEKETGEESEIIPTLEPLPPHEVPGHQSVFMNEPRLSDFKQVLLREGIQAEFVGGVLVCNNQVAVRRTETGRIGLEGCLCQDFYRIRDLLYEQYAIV
UniProt Q9Y646: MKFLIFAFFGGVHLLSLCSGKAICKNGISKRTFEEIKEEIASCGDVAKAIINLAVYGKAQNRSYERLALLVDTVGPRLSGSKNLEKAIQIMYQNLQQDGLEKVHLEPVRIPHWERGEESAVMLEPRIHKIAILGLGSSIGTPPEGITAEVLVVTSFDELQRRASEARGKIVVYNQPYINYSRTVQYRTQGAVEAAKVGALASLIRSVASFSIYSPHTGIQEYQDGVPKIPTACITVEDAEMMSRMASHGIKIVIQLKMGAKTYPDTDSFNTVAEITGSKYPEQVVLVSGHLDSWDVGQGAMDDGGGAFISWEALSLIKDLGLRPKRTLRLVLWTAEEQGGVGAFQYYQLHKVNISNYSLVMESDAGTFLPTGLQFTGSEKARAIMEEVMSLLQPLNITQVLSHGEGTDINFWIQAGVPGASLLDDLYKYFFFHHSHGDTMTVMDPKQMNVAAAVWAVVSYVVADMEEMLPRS
UniProt P15954, whole entry, looked up: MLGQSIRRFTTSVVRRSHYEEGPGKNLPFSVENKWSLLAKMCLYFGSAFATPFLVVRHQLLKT
UniProt Q17RY0: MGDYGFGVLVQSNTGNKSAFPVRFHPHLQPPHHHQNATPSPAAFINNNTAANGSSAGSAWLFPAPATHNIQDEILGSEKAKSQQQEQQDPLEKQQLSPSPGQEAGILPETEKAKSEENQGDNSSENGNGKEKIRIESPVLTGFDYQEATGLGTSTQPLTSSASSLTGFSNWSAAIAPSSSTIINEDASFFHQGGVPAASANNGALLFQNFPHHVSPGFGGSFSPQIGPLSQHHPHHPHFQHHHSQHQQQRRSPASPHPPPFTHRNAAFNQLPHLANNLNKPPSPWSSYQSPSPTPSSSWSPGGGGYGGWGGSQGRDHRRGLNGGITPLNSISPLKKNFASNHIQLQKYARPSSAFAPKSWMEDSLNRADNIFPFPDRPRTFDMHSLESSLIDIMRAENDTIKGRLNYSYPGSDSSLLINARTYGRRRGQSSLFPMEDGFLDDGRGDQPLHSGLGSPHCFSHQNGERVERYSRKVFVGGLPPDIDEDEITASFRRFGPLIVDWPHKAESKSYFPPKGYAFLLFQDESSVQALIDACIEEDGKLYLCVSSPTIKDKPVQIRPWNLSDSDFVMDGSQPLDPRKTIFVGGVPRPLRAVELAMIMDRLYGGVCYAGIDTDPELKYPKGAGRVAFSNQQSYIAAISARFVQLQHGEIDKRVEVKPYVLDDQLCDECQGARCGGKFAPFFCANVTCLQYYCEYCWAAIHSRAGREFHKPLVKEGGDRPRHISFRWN
UniProt P61923: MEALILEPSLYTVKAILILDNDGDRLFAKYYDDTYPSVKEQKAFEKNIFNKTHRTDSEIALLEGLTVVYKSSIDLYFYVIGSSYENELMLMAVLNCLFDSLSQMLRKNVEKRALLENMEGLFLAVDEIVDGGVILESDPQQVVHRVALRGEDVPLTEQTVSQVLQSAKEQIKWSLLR

[2] = compound: CCCS(=O)(=O)Nc1ccc(F)c(C(=O)c2c[nH]c3ncc(Cl)cc23)c1F
Summary of the method: as §1

[3] = compound: CCN(CCCOc1ccc2c(Nc3cc(CC(=O)Nc4cccc(F)c4)[nH]n3)ncnc2c1)CCOP(=O)(O)O [barasertib]
Summary of the method: as §1

[4] = compound: CC[C@@H]1C(=O)N(C)c2cnc(Nc3ccc(C(=O)NC4CCN(C)CC4)cc3OC)nc2N1C1CCCC1
Summary of the method: as §1

[5] = compound: CC[C@@H]1C(=O)N(C)c2cnc(Nc3ccc(C(=O)N[C@H]4CC[C@H](N5CCN(CC6CC6)CC5)CC4)cc3OC)nc2N1C(C)C [volasertib]
Summary of the method: as §1

[6] = compound: CCn1c(C(=O)N(C2CC2)C2CC2)cc2c3c(ncn3C)c(Nc3cc(C)n(C)n3)nc21
Summary of the method: as §1

[7] = compound: CCn1cc(-c2ccnc3[nH]c(-c4cccc(CN(C)C)c4)cc23)c(-c2ccc(NC(=O)N(C)C)cc2)n1
Summary of the method: as §1

[8] = compound: CN1CCC(CNc2ccc3ncc(-c4cccc(OC(F)(F)F)c4)n3n2)CC1
Summary of the method: as §1

[9] = compound: CN1CCN(CCOc2cc(OC3CCOCC3)c3c(Nc4c(Cl)ccc5c4OCO5)ncnc3c2)CC1 [saracatinib]
Summary of the method: as §1

[10] = compound: CN1CCN(c2nc(C3=C(c4c[nH]c5ccccc45)C(=O)NC3=O)c3ccccc3n2)CC1 [sotrastaurin]
Summary of the method: as §1

[11] = compound: CN1CC[C@H](c2c(O)cc(O)c3c(=O)cc(-c4ccccc4Cl)oc23)[C@H](O)C1 [alvocidib]
Summary of the method: as §1

[12] = compound: CN1CCc2c(c3ccccc3n2Cc2ccc(C(=O)NO)cc2)C1 [Tubastatin A]
Summary of the method: as §1

[13] = compound: CNC(=O)C1=CC=CC=C1NC2=NC(=NC=C2Cl)NC3=C(C=C(C=C3)N4CCOCC4)OC
Summary of the method: as §1

[14] = compound: CNC(=O)c1ccc(Nc2ncc(C(F)(F)F)c(NCc3nccnc3N(C)S(C)(=O)=O)n2)cc1 [defactinib]
Summary of the method: as §1

[15] = compound: CNc1nc(-c2ccc3c(N)n[nH]c3c2)cc(N2C[C@@H](C(=O)NC3CCCCC3)CC[C@H]2C)n1
Summary of the method: as §1

[16] = compound: COC(=O)N[C@@H](C)CNc1nccc(-c2cn(C(C)C)nc2-c2cc(Cl)cc(NS(C)(=O)=O)c2F)n1 [encorafenib]
Summary of the method: as §1

[17] = compound: COC(=O)[C@H](CCSC)NC(=O)C1=C(C=C(C=C1)NC[C@H](CS)N)C2=CC=CC=C2
Summary of the method: as §1

[18] = compound: COc1cc(Nc2ncc3c(n2)-c2ccc(Cl)cc2C(c2c(F)cccc2OC)=NC3)ccc1C(=O)O [alisertib]
Summary of the method: as §1

[19] = compound: COc1cc2nc(-c3cc(F)ccc3O)nc(N[C@@H]3CNC[C@H]3C(C)(C)O)c2cc1OC
Summary of the method: as §1

[20] = compound: COc1cc2ncnc(Nc3ccc(F)c(Cl)c3)c2cc1OCCCN1CCOCC1 [gefitinib]
Summary of the method: as §1

Row | Target | log2 fold change [1] | log2 fold change [2] | log2 fold change [3] | log2 fold change [4] | log2 fold change [5] | log2 fold change [6] | log2 fold change [7] | log2 fold change [8] | log2 fold change [9] | log2 fold change [10] | log2 fold change [11] | log2 fold change [12] | log2 fold change [13] | log2 fold change [14] | log2 fold change [15] | log2 fold change [16] | log2 fold change [17] | log2 fold change [18] | log2 fold change [19] | log2 fold change [20]
1 | COPG1 (UniProt Q9Y678) | inactive: 0.007 | inactive: 0.005 | inactive: 0.007 | inactive: -0.008 | inactive: -0.009 | inactive: -0.002 | inactive: -0.014 | inactive: 0.007 | inactive: -0.023 | inactive: -0.034 | inactive: -0.008 | inactive: 0.011 | inactive: -0.008 | inactive: 0.007 | inactive: 0.004 | inactive: -0.001 | inactive: -0.019 | inactive: 0.004 | inactive: 0.011 | inactive: -0.017
2 | COLGALT2 (UniProt Q8IYK4) | inactive: -0.038 | inactive: 0.01 | inactive: -0.039 | inactive: -0.023 | inactive: -0.011 | inactive: 0.017 | inactive: -0.015 | inactive: 0.019 | inactive: 0.019 | inactive: 0.017 | inactive: 0.011 | inactive: -0.011 | inactive: 0.026 | inactive: 0.012 | inactive: -0.064 | inactive: 0.035 | inactive: 0.002 | inactive: -0.003 | inactive: 0.008 | inactive: 0.008
3 | COPS7B isoform 3 (UniProt Q9H9Q2) | inactive: 0.03 | inactive: 0.011 | inactive: -0.014 | inactive: -0.004 | inactive: 0.011 | inactive: 0.033 | inactive: 0.06 | inactive: 0.029 | inactive: -0.007 | inactive: -0.068 | inactive: -0.004 | inactive: 0.036 | inactive: -0.005 | inactive: -0.073 | inactive: 0.005 | inactive: -0.004 | inactive: -0.005 | inactive: -0.002 | inactive: 0 | inactive: -0.07
4 | COX6C (UniProt P09669) | inactive: 0 | inactive: 0 | inactive: 0 | inactive: 0.02 | inactive: 0.032 | inactive: 0.034 | inactive: -0.1 | inactive: -0.005 | inactive: 0.009 | inactive: -0.038 | inactive: -0.053 | inactive: 0 | inactive: 0.009 | inactive: 0.034 | inactive: 0.016 | inactive: -0.004 | inactive: -0.038 | inactive: 0.018 | inactive: 0.008 | inactive: -0.069
5 | COG2 (UniProt Q14746) | inactive: 0.023 | inactive: 0.012 | inactive: 0.077 | inactive: -0.052 | inactive: -0.088 | inactive: 0.106 | inactive: 0.032 | inactive: -0.093 | inactive: 0.002 | inactive: 0.037 | inactive: -0.032 | inactive: -0.114 | inactive: -0.009 | inactive: 0.05 | inactive: 0.028 | inactive: -0.009 | inactive: 0.052 | inactive: 0.021 | inactive: -0.022 | inactive: -0.039
6 | CNP (UniProt P09543) | inactive: 0.005 | inactive: -0.011 | inactive: 0.003 | inactive: -0.097 | inactive: -0.022 | inactive: 0.019 | inactive: -0.023 | inactive: -0.028 | inactive: 0.01 | inactive: -0.008 | inactive: -0.005 | inactive: -0.06 | inactive: 0.011 | inactive: 0.028 | inactive: -0.03 | inactive: 0.02 | inactive: -0.003 | inactive: 0.029 | inactive: 0 | inactive: -0.025
7 | COG3 (UniProt Q96JB2) | inactive: 0.004 | inactive: 0.012 | inactive: 0.041 | inactive: -0.056 | inactive: -0.071 | inactive: 0.042 | inactive: -0.038 | inactive: 0.012 | inactive: 0.046 | inactive: 0.008 | inactive: -0.023 | inactive: -0.09 | inactive: 0.042 | inactive: -0.016 | inactive: -0.041 | inactive: -0.013 | inactive: -0.045 | inactive: 0.032 | inactive: -0.018 | inactive: -0.026
8 | COA7 (UniProt Q96BR5) | inactive: -0.019 | inactive: 0.005 | inactive: 0.056 | inactive: 0.046 | inactive: 0.029 | inactive: 0.032 | inactive: -0.048 | inactive: 0.044 | inactive: -0.04 | inactive: -0.006 | inactive: -0.019 | inactive: 0.008 | inactive: 0.008 | inactive: -0.025 | inactive: -0.036 | inactive: -0.021 | inactive: -0.114 | inactive: -0.022 | inactive: -0.055 | inactive: 0.02
9 | CPPED1 (UniProt Q9BRF8) | inactive: -0.021 | inactive: -0.022 | inactive: -0.032 | inactive: -0.009 | inactive: 0.032 | inactive: -0.029 | inactive: -0.131 | inactive: 0.133 | inactive: 0.028 | inactive: 0.046 | inactive: -0.105 | inactive: 0.039 | inactive: -0.049 | inactive: -0.007 | inactive: 0.018 | inactive: 0.012 | inactive: -0.042 | inactive: 0.018 | inactive: 0.016 | inactive: 0.039
10 | COX20 isoform 2 (UniProt Q5RI15) | inactive: 0.011 | inactive: -0.011 | inactive: -0.329 | inactive: 0.144 | inactive: 0.021 | inactive: -0.015 | active: 0.623 | inactive: -0.232 | inactive: -0.015 | inactive: 0.001 | inactive: 0.102 | inactive: -0.012 | inactive: 0.01 | inactive: -0.007 | inactive: 0.06 | inactive: -0.103 | inactive: 0.022 | inactive: 0.001 | inactive: -0.033 | inactive: -0.009
11 | CPSF7 isoform 3 (UniProt Q8N684) | inactive: -0.022 | inactive: 0.006 | inactive: 0.034 | inactive: -0.031 | inactive: 0.007 | inactive: 0.036 | inactive: 0.032 | inactive: 0.021 | inactive: 0.012 | inactive: 0.003 | inactive: -0.055 | inactive: 0 | inactive: 0 | inactive: 0.011 | inactive: -0.021 | inactive: 0.037 | inactive: -0.042 | inactive: 0.028 | inactive: -0.007 | inactive: -0.037
12 | CPSF2 (UniProt Q9P2I0) | inactive: -0.009 | inactive: 0.003 | inactive: 0.018 | inactive: -0.018 | inactive: -0.042 | inactive: 0.04 | inactive: -0.017 | inactive: -0.031 | inactive: -0.018 | inactive: 0.028 | inactive: -0.027 | inactive: -0.059 | inactive: 0.029 | inactive: 0.033 | inactive: -0.033 | inactive: 0.009 | inactive: 0.107 | inactive: -0.053 | inactive: -0.02 | inactive: -0.003
13 | CPQ (UniProt Q9Y646) | inactive: -0.006 | inactive: 0.004 | inactive: -0.027 | inactive: 0.061 | inactive: 0.03 | inactive: -0.031 | inactive: 0.026 | inactive: -0.005 | inactive: 0.014 | inactive: -0.02 | inactive: -0.002 | inactive: 0.045 | inactive: 0.033 | inactive: 0.035 | inactive: 0.087 | inactive: 0.058 | inactive: -0.039 | inactive: -0.001 | inactive: 0.013 | inactive: -0.022
14 | COX7C (UniProt P15954) | inactive: 0.02 | inactive: -0.006 | inactive: -0.035 | inactive: 0.206 | inactive: -0.017 | inactive: -0.05 | inactive: -0.03 | inactive: -0.106 | inactive: 0.009 | inactive: -0.052 | inactive: 0.154 | inactive: 0.05 | inactive: -0.016 | inactive: 0.1 | inactive: -0.061 | inactive: -0.144 | inactive: 0.321 | inactive: 0.012 | inactive: -0.093 | inactive: -0.068
15 | CPEB4 (UniProt Q17RY0) | inactive: -0.01 | inactive: 0.016 | inactive: 0.002 | inactive: 0.072 | inactive: -0.037 | inactive: 0.26 | inactive: -0.068 | inactive: -0.041 | inactive: 0.078 | – | inactive: -0.036 | inactive: -0.33 | inactive: -0.242 | inactive: 0.142 | inactive: 0.096 | inactive: 0.092 | inactive: -0.063 | inactive: -0.057 | inactive: -0.045 | inactive: -0.03
16 | COPZ1 isoform 4 (UniProt P61923) | inactive: -0.054 | inactive: -0.004 | inactive: 0.111 | inactive: 0.022 | inactive: 0.019 | inactive: 0.004 | inactive: -0.015 | inactive: -0.187 | inactive: 0.018 | inactive: 0.01 | inactive: 0.084 | inactive: 0.055 | inactive: 0.081 | inactive: 0.166 | inactive: -0.093 | inactive: -0.011 | inactive: -0.049 | inactive: 0.045 | inactive: -0.077 | inactive: -0.142

Retrieved one by one from the list above, 2 records:
Row | Target | log2 fold change [1] | log2 fold change [2] | log2 fold change [3] | log2 fold change [4] | log2 fold change [5] | log2 fold change [6] | log2 fold change [7] | log2 fold change [8] | log2 fold change [9] | log2 fold change [10] | log2 fold change [11] | log2 fold change [12] | log2 fold change [13] | log2 fold change [14] | log2 fold change [15] | log2 fold change [16] | log2 fold change [17] | log2 fold change [18] | log2 fold change [19] | log2 fold change [20]
10 | COX20 isoform 2 (UniProt Q5RI15) | inactive: 0.011 | inactive: -0.011 | inactive: -0.329 | inactive: 0.144 | inactive: 0.021 | inactive: -0.015 | active: 0.623 | inactive: -0.232 | inactive: -0.015 | inactive: 0.001 | inactive: 0.102 | inactive: -0.012 | inactive: 0.01 | inactive: -0.007 | inactive: 0.06 | inactive: -0.103 | inactive: 0.022 | inactive: 0.001 | inactive: -0.033 | inactive: -0.009
4 | COX6C (UniProt P09669) | inactive: 0 | inactive: 0 | inactive: 0 | inactive: 0.02 | inactive: 0.032 | inactive: 0.034 | inactive: -0.1 | inactive: -0.005 | inactive: 0.009 | inactive: -0.038 | inactive: -0.053 | inactive: 0 | inactive: 0.009 | inactive: 0.034 | inactive: 0.016 | inactive: -0.004 | inactive: -0.038 | inactive: 0.018 | inactive: 0.008 | inactive: -0.069
